Some of these results come from one statement about several compounds together.
Assay: Determination of drug-time curve in vivo (serum dihydroartemisinin by LC-MS after intravenous injection)
Parameters: species or system SD rats
Conditions: rats, in comparison with artesunate
Protocol: Samples: Artesunate, Compounds 1-4.
Preparation of samples: artesunate was dissolved with 5% NaHCO3 physiological saline to obtain 10 mg/ml colorless pellucid solution; Compound 1 was dissolved with injection physiological saline to prepare a colorless pellucid solution containing equivalently 10 mg/ml artesunate.
Animals: SD rats were purchased from the Animal Center of the Military Medical Science Academy of the PLA, body weight 200±10 g, male, conventionally raised, free diet.
Experimental method: solutions of artesunate and Compound 1 samples were administrated to each rat by intravenous injection in an amount of 0.2 ml (a dose equivalent to 10 mg/kg artesunate). Blood samples were collected at 0 min, 10 min, 20 min, 30 min, 45 min, 1 hr, 1.5 hr, 2 hr, 2.5 hr, 3 hr, 4 hr, 6 hr, 8 hr, 10 hr, respectively, and serum concentration of dihydroartemisinin were measured by LC-MS method.
Experimental Results: See FIG. 1.

Substance: mPEG20k-Lys-(Artesunate)2 [Compound 2]
- half-life extension (in words): significantly extended

Substance: Artesunate-NH-PEG20k-NH-Artesunate [Compound 4]
- half-life extension (in words): significantly extended
